Experimental data: PubChem BioAssay AID1159578 (Peter MacCallum Cancer Centre, 2015)
Screen: 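Knock-downs that alter how fast lymphatic endothelial cells migrate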 (primary screen). Cells: human lymphatic endothelial cells. Reagents: siRNA pool against human genes, 40 nM. Duration: 48 h after transfection. Detection: 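Cells stained with dye and imaged after a scratch; covered wound area and nuclei counted, duplicates averaged, migration set against mock wells and turned into a robust z-score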. Reading the numbers: migration robust z-score: higher = faster migration into the scratch; migration relative to mock: higher = more scratch area covered than mock; nuclei per well: higher = more cells in the well. Rule for the call: 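Migration changed when robust z exceeds 2 or falls below -2 and mean nuclei number is at least 3300; otherwise not called changed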. Calls: active = migration changed; inactive = no migration change, or too few cells.
The deposit covers about 18,000 reagents; this is a random part of them. Over the whole deposit, about 1,030 (5.7%) were called active. 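Inactive calls also include pools with fewer than 3300 nuclei, whose migration was not assessed.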 Raw values are not corrected between plates. A number with no mark means an inactive call.

target	migration robust z-score	migration class with cell-count check	migration relative to mock	nuclei per well, duplicate mean
KCND2 (potassium voltage-gated channel subfamily D member 2)	-1.04	migration z between -2 and 2; enough cells	0.6	5698
PRSS45P (serine protease 45, pseudogene)	0.31	migration z between -2 and 2; enough cells	0.86	5234
ZAR1 (zygote arrest 1)	-0.04	migration z between -2 and 2; enough cells	0.88	5519
SMC1A (structural maintenance of chromosomes 1A)	-0.57	migration z between -2 and 2; enough cells	0.7	5548
ABCA8 (ATP binding cassette subfamily A member 8)	-0.34	migration z between -2 and 2; enough cells	0.8	7384
PGAP2 (post-GPI attachment to proteins 2)	1.02	migration z between -2 and 2; enough cells	1.15	6420
GUSB (glucuronidase beta)	0.72	migration z between -2 and 2; enough cells	0.94	5548
GRIN2A (glutamate ionotropic receptor NMDA type subunit 2A)	0.24	migration z between -2 and 2; enough cells	0.85	4710
BAALC (BAALC binder of MAP3K1 and KLF4)	-0.52	migration z between -2 and 2; enough cells	0.75	5754
ERBB2 (erb-b2 receptor tyrosine kinase 2)	-0.03	migration z between -2 and 2; enough cells	0.8	5532
GLMP (glycosylated lysosomal membrane protein)	-0.63	migration z between -2 and 2; enough cells	0.72	5045
NUDT17 (nudix hydrolase 17)	-1.31	migration z between -2 and 2; enough cells	0.54	7219
ALX3 (ALX homeobox 3)	-1.14	migration z between -2 and 2; enough cells	0.58	4358
MFSD1 (major facilitator superfamily domain containing 1)	2.2 (active)	migration z above 2; enough cells	1.46	6524
GTPBP8 (GTP binding protein 8)	-1.09	migration z between -2 and 2; enough cells	0.6	4462
KCNG1	2.34 (active)	migration z above 2; enough cells	1.25	5392
PRMT2 (protein arginine methyltransferase 2)	-1.56	migration z between -2 and 2; enough cells	0.5	6692
PSG1 (pregnancy specific beta-1-glycoprotein 1)	-0.44	migration z between -2 and 2; enough cells	0.77	5660
EEIG1 (estrogen-induced osteoclastogenesis regulator 1)	-1	migration z between -2 and 2; enough cells	0.62	5528
VSTM4 (V-set and transmembrane domain containing 4)	1.25	migration z between -2 and 2; enough cells	1.21	5418
DKC1 (dyskerin pseudouridine synthase 1)	-1.79	migration z between -2 and 2; enough cells	0.46	3770
RXRB (retinoid X receptor beta)	-0.57	migration z between -2 and 2; enough cells	0.7	3876
COPS7B (COP9 signalosome subunit 7B)	-0.02	migration z between -2 and 2; enough cells	0.88	6486

Copied from the entries so far (3 entries):
target	migration robust z-score	migration class with cell-count check	migration relative to mock	nuclei per well, duplicate mean
NUDT17 (nudix hydrolase 17)	-1.31	migration z between -2 and 2; enough cells	0.54	7219
ALX3 (ALX homeobox 3)	-1.14	migration z between -2 and 2; enough cells	0.58	4358
MFSD1 (major facilitator superfamily domain containing 1)	2.2 (active)	migration z above 2; enough cells	1.46	6524
